# In the supplement of paper PMC4604168 (melanoma cell lines):
# Some of the results follow. Single values are uncertain, as repeats are few or missing.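 Imaging used 1,536-well plates; nuclei positive for cleaved PARP by antibody were divided by total DNA-stained nuclei to yield the apoptosis fraction. Doses for screening kept most cells viable, and cell lines differ markedly in resting and induced cleaved-PARP levels.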
# Tested on: CBRC017 (line from a melanoma biopsy)
# Test: cleaved PARP positive nuclei fraction relative to DMSO control; melanoma cells; higher = more apoptosis
# Conditions: library dose: low library concentration; 72 h
row,SMILES,cleaved PARP positive nuclei fraction [%]
1,"N.N.[Cl][Pt][Cl] [cisplatin] + Cn1c(Nc2ccc(C(F)(F)F)cc2)nc2cc(Oc3ccnc(-c4ncc(C(F)(F)F)[nH]4)c3)ccc21 [CHIR265] (first compound 1.6 µM, partner dose 0.08 µM)",113
2,"C[C@]12O[C@H](C[C@]1(O)CO)n1c3ccccc3c3c4c(c5c6ccccc6n2c5c31)CNC4=O [Lestaurtinib] + C=C(c1ccc(C(=O)O)cc1)c1cc2c(cc1C)C(C)(C)CCC2(C)C [Bexarotene] (first compound 0.004 µM, partner dose 2 µM)",151
3,"N.N.[Cl][Pt][Cl] [cisplatin] + CO[C@H]1C[C@@H]2CC[C@@H](C)[C@@](O)(O2)C(=O)C(=O)N2CCCC[C@H]2C(=O)O[C@H]([C@H](C)C[C@@H]2CC[C@@H](OCCO)[C@H](OC)C2)CC(=O)[C@H](C)/C=C(\C)[C@@H](O)[C@@H](OC)C(=O)[C@H](C)C[C@H](C)/C=C/C=C/C=C/1C [everolimus] (first compound 1.6 µM, partner dose 0.02 µM)",133
4,"COc1ccc(C2=N[C@@H](c3ccc(Cl)cc3)[C@@H](c3ccc(Cl)cc3)N2C(=O)N2CCNC(=O)C2)c(OC(C)C)c1 [Nutlin-3] + N.N.[Cl][Pt][Cl] [cisplatin] (first compound 0.1 µM, partner dose 1.6 µM)",138
5,"Cn1sc(=O)n(Cc2ccccc2)c1=O + N.N.[Cl][Pt][Cl] [cisplatin] (first compound 0.4 µM, partner dose 1.6 µM)",111
6,"Cn1cc(C2=C(c3cn(C4CCN(Cc5ccccn5)CC4)c4ccccc34)C(=O)NC2=O)c2ccccc21 [Enzastaurin] + CN(c1ncccc1CNc1nc(Nc2ccc3c(c2)CC(=O)N3)ncc1C(F)(F)F)S(C)(=O)=O [PF562271] (first compound 0.8 µM, partner dose 0.08 µM)",145
7,"C[C@]12O[C@H](C[C@]1(O)CO)n1c3ccccc3c3c4c(c5c6ccccc6n2c5c31)CNC4=O [Lestaurtinib] + CCCS(=O)(=O)Nc1ccc(F)c(C(=O)c2c[nH]c3ncc(Cl)cc23)c1F [PLX4720] (first compound 0.004 µM, partner dose 0.08 µM)",84.8
8,"C[C@]12O[C@H](C[C@]1(O)CO)n1c3ccccc3c3c4c(c5c6ccccc6n2c5c31)CNC4=O [Lestaurtinib] + COc1ccc(Cl)c(Nc2nc3ccccc3nc2NS(=O)(=O)c2cccc(NC(=O)C(C)(C)N)c2)c1 [XL147] (first compound 0.004 µM, partner dose 0.8 µM)",149
9,"N.N.[Cl][Pt][Cl] [cisplatin] + Cn1nnc2c(C(N)=O)ncn2c1=O [temozolomide] (first compound 1.6 µM, partner dose 2 µM)",134
10,"Cn1cc(C2=C(c3cn(C4CCN(Cc5ccccn5)CC4)c4ccccc34)C(=O)NC2=O)c2ccccc21 [Enzastaurin] + C=CCNC1=C2C[C@@H](C)C[C@H](OC)[C@H](O)[C@@H](C)/C=C(\C)[C@H](OC(N)=O)[C@@H](OC)/C=C\C=C(/C)C(=O)NC(=CC1=O)C2=O [Tanespimycin] (first compound 0.8 µM, partner dose 0.002 µM)",119
11,"CS(=O)(=O)c1ccc(C(=O)Nc2ccc(Cl)c(-c3ccccn3)c2)c(Cl)c1 [vismodegib] + C[As](C)SC[C@H](NC(=O)CC[C@H](N)C(=O)O)C(=O)NCC(=O)O [Darinaparsin] (first compound 1 µM, partner dose 0.4 µM)",81.9
12,"CS(=O)(=O)c1ccc(C(=O)Nc2ccc(Cl)c(-c3ccccn3)c2)c(Cl)c1 [vismodegib] + N.N.[Cl][Pt][Cl] [cisplatin] (first compound 1 µM, partner dose 1.6 µM)",176
13,"CCCS(=O)(=O)Nc1ccc(F)c(C(=O)c2c[nH]c3ncc(Cl)cc23)c1F + C[As](C)SC[C@H](NC(=O)CC[C@H](N)C(=O)O)C(=O)NCC(=O)O [Darinaparsin] (first compound 0.08 µM, partner dose 0.4 µM)",93.1
14,"C[C@]12O[C@H](C[C@]1(O)CO)n1c3ccccc3c3c4c(c5c6ccccc6n2c5c31)CNC4=O [Lestaurtinib] + C=CCNC1=C2C[C@@H](C)C[C@H](OC)[C@H](O)[C@@H](C)/C=C(\C)[C@H](OC(N)=O)[C@@H](OC)/C=C\C=C(/C)C(=O)NC(=CC1=O)C2=O [Tanespimycin] (first compound 0.004 µM, partner dose 0.002 µM)",102
15,"C[C@]12O[C@H](C[C@]1(O)CO)n1c3ccccc3c3c4c(c5c6ccccc6n2c5c31)CNC4=O [Lestaurtinib] + O=C(O)[C@@H]1[O][Sb](=[O])([O][Sb]2(=[O])[O][C@H]([C@H](O)CO)[C@H](O)[C@H](C(=O)O)[O]2)[O][C@H]([C@H](O)CO)[C@@H]1O [stibogluconate] (first compound 0.004 µM, partner dose 2 µM)",139
16,"Cn1cc(C2=C(c3cn(C4CCN(Cc5ccccn5)CC4)c4ccccc34)C(=O)NC2=O)c2ccccc21 [Enzastaurin] + C=C(c1ccc(C(=O)O)cc1)c1cc2c(cc1C)C(C)(C)CCC2(C)C [Bexarotene] (first compound 0.8 µM, partner dose 2 µM)",188

# Quoted from the listing:
# cleaved PARP positive nuclei fraction [%], CS(=O)(=O)c1ccc(C(=O)Nc2ccc(Cl)c(-c3ccccn3)c2)c(Cl)c1 [vismodegib] + N.N.[Cl][Pt][Cl] [cisplatin] (first compound 1 µM, partner dose 1.6 µM) reads 176
# cleaved PARP positive nuclei fraction [%], N.N.[Cl][Pt][Cl] [cisplatin] + Cn1nnc2c(C(N)=O)ncn2c1=O [temozolomide] (first compound 1.6 µM, partner dose 2 µM) reads 134
